{"source": "the supplement of paper PMC8728848", "experiment_in_all_cases": "glycan array binding signal (z-score within array); higher = stronger binding", "conditions_in_all_cases": "glycan notation: IUPAC condensed, linker removed", "key": {"Fuc(b1-3)GlcNAc": {"biological_target": "Fuc(b1-3)GlcNAc", "in_short": "(§1)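 Arrays were curated from the Consortium for Functional Glycomics database, 3228 in total, and kept only where the protein sequence was available. Binding is expressed as a within-array Z-score. This score was averaged across arrays of the same protein sequence at different concentrations or buffers and across linkers, and negative values can be read as non-binding.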"}, "Gal(a1-2)Gal": {"biological_target": "Gal(a1-2)Gal", "in_short": "as §1"}, "Gal(a1-3)Gal": {"biological_target": "Gal(a1-3)Gal", "in_short": "as §1"}, "Gal(a1-3)Gal(b1-3)Glc": {"biological_target": "Gal(a1-3)Gal(b1-3)Glc", "in_short": "as §1"}, "Gal(a1-3)Gal(b1-3)GlcNAc": {"biological_target": "Gal(a1-3)Gal(b1-3)GlcNAc", "in_short": "as §1"}, "Gal(a1-3)Gal(b1-4)GlcNAc": {"biological_target": "Gal(a1-3)Gal(b1-4)GlcNAc", "in_short": "as §1"}, "[1]": {"biological_target": "Gal(a1-3)Gal(b1-4)[Fuc(a1-3)]GalNAc", "in_short": "as §1"}, "Gal(a1-3)GlcNAc": {"biological_target": "Gal(a1-3)GlcNAc", "in_short": "as §1"}, "[2]": {"biological_target": "Gal(a1-3)[Gal(a1-4)]Gal(b1-4)GlcNAc", "in_short": "as §1"}, "Gal(a1-4)Gal(b1-4)Gal": {"biological_target": "Gal(a1-4)Gal(b1-4)Gal", "in_short": "as §1"}, "Gal(a1-4)Gal(b1-4)GalNAc": {"biological_target": "Gal(a1-4)Gal(b1-4)GalNAc", "in_short": "as §1"}, "Gal(a1-4)GlcNAc": {"biological_target": "Gal(a1-4)GlcNAc", "in_short": "as §1"}, "Gal(a1-6)Glc": {"biological_target": "Gal(a1-6)Glc", "in_short": "as §1"}, "Gal(b1-2)Gal": {"biological_target": "Gal(b1-2)Gal", "in_short": "as §1"}, "Gal(b1-3)Gal": {"biological_target": "Gal(b1-3)Gal", "in_short": "as §1"}, "Gal(b1-3)GalNAc": {"biological_target": "Gal(b1-3)GalNAc", "in_short": "as §1"}, "[3]": {"biological_target": "Gal(b1-3)GalNAc(b1-3)Gal(a1-4)Gal(b1-4)Glc", "in_short": "as §1"}, "[4]": {"biological_target": "Gal(b1-3)GalNAc(b1-3)Gal(b1-4)Glc", "in_short": "as §1"}, "[5]": {"biological_target": "Gal(b1-3)GalNAc(b1-3)Gal(b1-4)GlcNAc", "in_short": "as §1"}, "[6]": {"biological_target": "Gal(b1-3)GalNAc(b1-4)Gal(b1-4)Glc", "in_short": "as §1"}, "[7]": {"biological_target": "Gal(b1-3)GalNAc(b1-4)[Neu5Ac(a2-3)]Gal(b1-4)Glc", "in_short": "as §1"}, "[8]": {"biological_target": "Gal(b1-3)GlcNAc(b1-3)Gal(b1-3)GlcNAc", "in_short": "as §1"}, "[9]": {"biological_target": "Gal(b1-3)[Fuc(a1-4)]GlcNAc", "in_short": "as §1"}, "[10]": {"biological_target": "Gal(b1-3)[Fuc(a1-4)]GlcNAc(b1-3)Gal(b1-3)[Fuc(a1-4)]GlcNAc", "in_short": "as §1"}, "[11]": {"biological_target": "Gal(b1-3)[Fuc(a1-4)]GlcNAc(b1-3)Gal(b1-4)GlcNAc", "in_short": "as §1"}, "[12]": {"biological_target": "Gal(b1-3)[Fuc(a1-4)]GlcNAc(b1-3)Gal(b1-4)[Fuc(a1-3)]GlcNAc", "in_short": "as §1"}, "[13]": {"biological_target": "Gal(b1-3)[GlcNAc(b1-6)]GalNAc", "in_short": "as §1"}, "[14]": {"biological_target": "Gal(b1-3)[GlcNAc(b1-6)]GlcNAc", "in_short": "as §1"}, "[15]": {"biological_target": "Gal(b1-3)[Neu5Ac(a2-6)]GalNAc", "in_short": "as §1"}, "[16]": {"biological_target": "Gal(b1-3)[Neu5Ac(a2-6)]GlcNAc", "in_short": "as §1"}, "[17]": {"biological_target": "Gal(b1-3)[Neu5Ac(a2-6)]GlcNAc(a1-4)Gal(b1-4)Glc", "in_short": "as §1"}, "[18]": {"biological_target": "Gal(b1-3)[Neu5Ac(b2-6)]GlcNAc", "in_short": "as §1"}, "[19]": {"biological_target": "Gal(b1-4)GalNAc(a1-3)[Fuc(a1-2)]Gal(b1-4)GlcNAc", "in_short": "as §1"}, "[20]": {"biological_target": "Gal(b1-4)GalNAc(b1-3)[Fuc(a1-2)]Gal(b1-4)GlcNAc", "in_short": "as §1"}, "Gal(b1-4)Glc": {"biological_target": "Gal(b1-4)Glc", "in_short": "as §1"}, "Gal(b1-4)Glc6S": {"biological_target": "Gal(b1-4)Glc6S", "in_short": "as §1"}, "Gal(b1-4)GlcNAc": {"biological_target": "Gal(b1-4)GlcNAc", "in_short": "as §1"}, "[21]": {"biological_target": "Gal(b1-4)GlcNAc(b1-2)Man(a1-3)[Gal(b1-4)GlcNAc(b1-2)Man(a1-6)]Man(b1-4)GlcNAc(b1-4)GlcNAc", "in_short": "as §1"}, "[22]": {"biological_target": "Gal(b1-4)GlcNAc(b1-3)Gal(b1-3)GlcNAc", "in_short": "as §1"}, "[23]": {"biological_target": "Gal(b1-4)GlcNAc(b1-3)Gal(b1-4)Glc", "in_short": "as §1"}, "[24]": {"biological_target": "Gal(b1-4)GlcNAc(b1-3)Gal(b1-4)GlcNAc", "in_short": "as §1"}, "[25]": {"biological_target": "Gal(b1-4)GlcNAc(b1-3)Gal(b1-4)GlcNAc(b1-3)Gal(b1-4)GlcNAc", "in_short": "as §1"}, "[26]": {"biological_target": "Gal(b1-4)GlcNAc(b1-3)Gal(b1-4)[Fuc(a1-3)]GlcNAc(b1-3)Gal(b1-4)[Fuc(a1-3)]GlcNAc", "in_short": "as §1"}, "[27]": {"biological_target": "Gal(b1-4)GlcNAc(b1-3)GalNAc", "in_short": "as §1"}, "[28]": {"biological_target": "Gal(b1-4)GlcNAc(b1-3)[Gal(b1-4)GlcNAc(b1-6)]GalNAc", "in_short": "as §1"}}, "note": "Some of the results follow.", "data": [{"binder": "MLTim-4 (Mus musculus), Q6U7R4 (protein) MSKGLLLLWLVTELWWLYLTPAASEDTIIGFLGQPVTLPCHYLSWSQSRNSMCWGKGSCPNSKCNAELLRTDGTRIISRKSTKYTLLGKVQFGEVSLTISNTNRGDSGVYCCRIEVPGWFNDVKKNVRLELRRAT", "values": [{"measurement": "glycan array binding signal (z-score)", "setting": "Fuc(b1-3)GlcNAc", "value": -0.108}, {"measurement": "glycan array binding signal (z-score)", "setting": "Gal(a1-2)Gal", "value": -0.369}, {"measurement": "glycan array binding signal (z-score)", "setting": "Gal(a1-3)Gal", "value": -0.358}, {"measurement": "glycan array binding signal (z-score)", "setting": "Gal(a1-3)Gal(b1-3)Glc", "value": -0.013}, {"measurement": "glycan array binding signal (z-score)", "setting": "Gal(a1-3)Gal(b1-3)GlcNAc", "value": 0.452}, {"measurement": "glycan array binding signal (z-score)", "setting": "Gal(a1-3)Gal(b1-4)GlcNAc", "value": -0.539}, {"measurement": "glycan array binding signal (z-score)", "setting": "[1]", "value": -0.303}, {"measurement": "glycan array binding signal (z-score)", "setting": "Gal(a1-3)GlcNAc", "value": 0.41}, {"measurement": "glycan array binding signal (z-score)", "setting": "[2]", "value": -0.284}, {"measurement": "glycan array binding signal (z-score)", "setting": "Gal(a1-4)Gal(b1-4)Gal", "value": 0.491}, {"measurement": "glycan array binding signal (z-score)", "setting": "Gal(a1-4)Gal(b1-4)GalNAc", "value": -0.456}, {"measurement": "glycan array binding signal (z-score)", "setting": "Gal(a1-4)GlcNAc", "value": 0.193}, {"measurement": "glycan array binding signal (z-score)", "setting": "Gal(a1-6)Glc", "value": 0.212}, {"measurement": "glycan array binding signal (z-score)", "setting": "Gal(b1-2)Gal", "value": 1.47}, {"measurement": "glycan array binding signal (z-score)", "setting": "Gal(b1-3)Gal", "value": 0.543}, {"measurement": "glycan array binding signal (z-score)", "setting": "Gal(b1-3)GalNAc", "value": 0.057}, {"measurement": "glycan array binding signal (z-score)", "setting": "[3]", "value": -0.243}, {"measurement": "glycan array binding signal (z-score)", "setting": "[4]", "value": -1.06}, {"measurement": "glycan array binding signal (z-score)", "setting": "[5]", "value": -0.928}, {"measurement": "glycan array binding signal (z-score)", "setting": "[6]", "value": -0.32}, {"measurement": "glycan array binding signal (z-score)", "setting": "[7]", "value": -0.834}, {"measurement": "glycan array binding signal (z-score)", "setting": "[8]", "value": -0.226}, {"measurement": "glycan array binding signal (z-score)", "setting": "[9]", "value": -0.424}, {"measurement": "glycan array binding signal (z-score)", "setting": "[10]", "value": 0.784}, {"measurement": "glycan array binding signal (z-score)", "setting": "[11]", "value": -0.367}, {"measurement": "glycan array binding signal (z-score)", "setting": "[12]", "value": -0.44}, {"measurement": "glycan array binding signal (z-score)", "setting": "[13]", "value": 0.397}, {"measurement": "glycan array binding signal (z-score)", "setting": "[14]", "value": 0.058}, {"measurement": "glycan array binding signal (z-score)", "setting": "[15]", "value": -0.297}, {"measurement": "glycan array binding signal (z-score)", "setting": "[16]", "value": 0.218}, {"measurement": "glycan array binding signal (z-score)", "setting": "[17]", "value": 0.255}, {"measurement": "glycan array binding signal (z-score)", "setting": "[18]", "value": -1.01}, {"measurement": "glycan array binding signal (z-score)", "setting": "[19]", "value": -0.197}, {"measurement": "glycan array binding signal (z-score)", "setting": "[20]", "value": -0.991}, {"measurement": "glycan array binding signal (z-score)", "setting": "Gal(b1-4)Glc", "value": 1.06}, {"measurement": "glycan array binding signal (z-score)", "setting": "Gal(b1-4)Glc6S", "value": 0.287}, {"measurement": "glycan array binding signal (z-score)", "setting": "Gal(b1-4)GlcNAc", "value": -0.293}, {"measurement": "glycan array binding signal (z-score)", "setting": "[21]", "value": -0.041}, {"measurement": "glycan array binding signal (z-score)", "setting": "[22]", "value": 0.48}, {"measurement": "glycan array binding signal (z-score)", "setting": "[23]", "value": -0.566}, {"measurement": "glycan array binding signal (z-score)", "setting": "[24]", "value": -0.679}, {"measurement": "glycan array binding signal (z-score)", "setting": "[25]", "value": 0.062}, {"measurement": "glycan array binding signal (z-score)", "setting": "[26]", "value": 0.134}, {"measurement": "glycan array binding signal (z-score)", "setting": "[27]", "value": -0.179}, {"measurement": "glycan array binding signal (z-score)", "setting": "[28]", "value": -0.548}]}]}
